Laboratory results published in publication PMC11171048.

Columns and labels:
[1] = biological target: FLAG-tagged bovine DDX3X (bovine); test: co-IP; HEK293T cells co-transfected; lysates in IP lysis buffer plus PMSF, 4 ug anti-Flag or anti-HA antibody overnight at 4 °C, protein A + G agarose beads 4 h, five washes; Western blot
[2] = biological target: FLAG-tagged bovine SP110c isoform (bovine); test: as above

binding [1]: no binding
binding [2]: binds weakly
B1: HA-tagged bovine ASC (protein, UniProt Q8HXK9 1-195)
chain: MGCTRDAILDALENLTADELKKFKMKLLSVPLREGYGRIPRGTLLPLDAVDLTDKLVSYYLEAYGAELTALVLRDMGMQEVAEQLQETMSKGPRNVLAEVRDPLQKTAKPGLHFVDQHRAALIARVTVVDGVLDALYGKVLTEEQYQAVRAERTSSDKMRKLFSFSPAWNMTCKDLLLQALRDTQPYLVDDLEQS

No constants are given. Whether binding was seen depends on the method and setting. In cells and extracts the contact can be indirect. For some assays here: Binding calls can cover weak binding; strength is not graded here. Where a sequence is shown, tags or fusion partners need not be part of it.
